From patent publication US20110001042A1, “ASSESSING TREATMENT COMPLIANCE” (priority 2007, published 2011)

Assays:
[1] = interference of other steroids with measurement of fluticasone-17-beta-carboxylic acid in pooled urine; conditions: mean of specimens

SMILES: CCC(=O)O[C@]1(C(=O)O)[C@H](C)C[C@H]2[C@@H]3C[C@H](F)C4=CC(=O)C=C[C@]4(C)[C@@]3(F)[C@@H](O)C[C@@]21C [Fluticasone 17β carboxylic acid]
- % Difference from F17bCOOH alone, Mean ([1]; with DOC standard): −8.8%
- % Difference from F17bCOOH alone, Mean ([1]; with synthetic glucocorticoids): 8.8%
- Minimum (Conc), Mean (limit of quantitation) (limit of quantitation; mean of 20 replicates): 10.4 pg/mL
- Minimum (Conc) (limit of quantitation; replicates 1-20, listed as F17bCOOH): 10.6 pg/mL (2×) and 15.3 pg/mL and 11.9 pg/mL and 9.5 pg/mL and 9.8 pg/mL and 8.3 pg/mL (2×) and 12.8 pg/mL and 11.1 pg/mL and 8.2 pg/mL and 12.1 pg/mL and 11.3 pg/mL and 10.4 pg/mL and 10.1 pg/mL and 11.7 pg/mL and 8.9 pg/mL and 8.6 pg/mL and 10.8 pg/mL and 7.7 pg/mL

Values joined by “and” are separate entries in the source; they are usually repeats but may differ in a detail not shown here. Equal values may be shown once.
